The text below walks through data of article PMC5915175.

The data set deals with T1, IRF4 WT (Homo sapiens) (UniProt Q15306).
T1 sequence (looked up): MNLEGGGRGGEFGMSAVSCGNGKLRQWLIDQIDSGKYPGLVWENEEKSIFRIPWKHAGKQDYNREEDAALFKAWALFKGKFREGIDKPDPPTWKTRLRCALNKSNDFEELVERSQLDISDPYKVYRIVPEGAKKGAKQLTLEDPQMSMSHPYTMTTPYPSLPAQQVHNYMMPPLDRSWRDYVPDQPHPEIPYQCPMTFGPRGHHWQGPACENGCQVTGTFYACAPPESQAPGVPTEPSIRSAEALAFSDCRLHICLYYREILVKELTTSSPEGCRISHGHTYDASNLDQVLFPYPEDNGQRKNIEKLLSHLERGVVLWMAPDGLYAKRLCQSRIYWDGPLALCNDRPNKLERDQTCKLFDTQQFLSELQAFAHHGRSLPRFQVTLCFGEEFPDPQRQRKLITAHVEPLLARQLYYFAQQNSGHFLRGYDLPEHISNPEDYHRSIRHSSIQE
Briefly: EMSA, supershift. The note with it: anti-IRF4 supershift; 10 ug HEK293T nuclear lysate (nuclear lysis buffer 20 mM Hepes pH 7.9, 0.4 M NaCl, 1 mM EDTA, 1 mM EGTA, 25% glycerol) with 32P probe, 30 min on ice; protein in a lysate after overexpression; residues 1-451; label: 32P (dATP, Klenow fill-in). (Mobility shift assays separate free from complexed probe on a gel.)

Construct, isoform or probe ends are uncertain for at least one entry. At least one result comes from cells or an extract, where the contact may be indirect. At least one verdict was read from the data and is not stated in words by the source. Tags and fusion partners may be left off the protein sequences shown.

As for “GATCGGGAAAGGGAAACCGAAACTGAA (double strand) [ISRE probe (ISG15 promoter-based)]”, the binding result was “binds”.
